“And” between values parts separate entries of the source, which are not always exact repeats. Equal entries are not always repeated. In all, about 300,000 compounds went through this assay and about 5,400 (1.8%) were called active. Inconclusive results, whose numbers are uncertain, are shown with a selection of clear calls. Calls come from the whole dose curve; tested in HEK293 cells. A potency beside an inconclusive call is a rough fit, not a confirmed value.
Assay: qHTS for inhibitors of binding or entry into cells for Marburg Virus
Conditions: Marburg virus pseudotyped entry inhibition, cell reporter; activity change, negative = inhibition: at 37.8 µM (top of the series) unless noted
% is set by controls: 0 for no effect and ±100 for the full control effect; potency is the fitted concentration of half-maximal effect.

SMILES | Potency | activity change, negative = inhibition
Cc1ncc(CN2CCCC(C(=O)Nc3ccc(-c4cccc(F)c4)cc3)C2)cn1 (configuration not stated) | inconclusive: 17.8 µM [inhibitor, single point] | 
COc1ccc2c(c1)c(CC(=O)O)c(C)n2C(=O)c1ccccc1 | inactive and inconclusive: 178 nM [inhibitor, full curve] | 
CCOC(=O)N1C2=NC(C(=O)OC)=C(C(=O)OC)[C@@H]3Nc4ccccc4[C@]23C[C@H]1C(=O)OC | inconclusive: 0.335 µM [inhibitor, partial curve, poor fit] | 
O=C(Nc1ccc(Cl)c(Cl)c1)N(CCCN1CCOCC1)Cc1cccnc1 | inconclusive: 35.5 µM [inhibitor, single point] | 
N#CC1=C(N)C(C#N)(C#N)C(c2ccncc2)C2CN(C(=O)OCc3ccccc3)CC=C12 (configuration not stated) | inconclusive: 35.5 µM [inhibitor, single point] | 
Cc1ccc(NC(=O)c2ccc3c(c2)NC(=O)c2ccccc2S3)cc1 | inconclusive: 7.94 µM [inhibitor, partial curve, poor fit] | 
CCC1S/C(=C(\C#N)C(=O)NCc2ccco2)N(c2ccc(Br)cc2)C1=O (configuration not stated) | inconclusive: 12.6 µM [activator, single point] | 
Cc1cccc(Nc2nc(N)nc(CCl)n2)c1C | inconclusive: 0.562 µM [inhibitor, partial curve, poor fit] | 
C=C(C)Cn1c(SCC(=O)N/N=C/c2cccc(O)c2)nc2ccccc2c1=O |  | inactive: 21.7%
CC(C)NS(=O)(=O)c1ccc(NC(=O)CCc2ccccc2)cc1 |  | inactive: 18%
O=c1[nH]c2cc3c(cc2cc1C(c1nnnn1Cc1ccccc1)N1CCCCCC1)OCCO3 (configuration not stated) | inconclusive: 10.3 µM [inhibitor, partial curve, poor fit] | 
COC(=O)c1c(-c2cccs2)csc1NC(=O)c1ccc(C(C)(C)C)cc1 | inconclusive: 1.78 µM [inhibitor, single point] | 
O=C(CCl)Nc1ccc(N=Nc2ccccc2)cc1 | inconclusive: 29.1 µM [inhibitor, single point] | 
CCN(CC)S(=O)(=O)c1ccc(OC)c(NC(=S)Nc2cccc(C)c2)c1 |  | inactive: -25.5%
CC1=NN2C(=N)/C(=C\c3cc(C)n(-c4ccc(C)cc4)c3C)C(=O)N=C2S1 | inconclusive: 5.62 µM [inhibitor, single point] | 
Cc1cc(C)cc(N(C(=O)c2csnn2)C(C(=O)NC(C)(C)C)c2cccnc2)c1 (configuration not stated) | inconclusive: 6.31 µM [inhibitor, single point] | 
COc1ccc(NC(=O)CC2C(=O)N(C)C(=S)N2CCc2ccccc2F)cc1 (configuration not stated) | inconclusive: 31.6 µM [inhibitor, single point] | 

3 compounds from above, arranged by number of heavy atoms, falling:
SMILES | Potency | activity change, negative = inhibition
N#CC1=C(N)C(C#N)(C#N)C(c2ccncc2)C2CN(C(=O)OCc3ccccc3)CC=C12 (configuration not stated) | inconclusive: 35.5 µM [inhibitor, single point] | 
C=C(C)Cn1c(SCC(=O)N/N=C/c2cccc(O)c2)nc2ccccc2c1=O |  | inactive: 21.7%
COc1ccc2c(c1)c(CC(=O)O)c(C)n2C(=O)c1ccccc1 | inactive and inconclusive: 178 nM [inhibitor, full curve] | 

From PubChem BioAssay AID540276 (National Center for Advancing Translational Sciences (NCATS), 2011)
